Data taken from the supplement of paper PMC7661543.
± gives the standard deviation of the averaged measurements. The effect of the compound repeats well; differences between the knockouts mostly do not.

Tested on: MDA-MB-231
Experiment: relative cell number vs DMSO control (72 h) (% of DMSO); higher = less growth inhibition (more cells)
Protocol: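 QMAP-Seq: a pool of 5 breast cancer cell lines (ZR-75-1, SKBR3, HCC-38, MDA-MB-231, BT-20), each carrying 12 doxycycline-inducible Cas9 sgRNA perturbations (11 knockouts plus non-targeting sgNT), was treated with compounds for 72 h at four 10-fold doses (10 nM-10 uM or 1 nM-1 uM range). Barcodes were amplified and sequenced, and cell number was interpolated from 293T spike-in standard curves. The result is expressed as % of the median of DMSO wells. Two biological replicates.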

[1] = sgRNA knockout: sgATF3, 1000 nM
[2] = sgRNA knockout: sgATF3, 10000 nM
[3] = sgRNA knockout: sgATF4, 1000 nM
[4] = sgRNA knockout: sgATF4, 10000 nM
[5] = sgRNA knockout: sgATF6, 1000 nM
[6] = sgRNA knockout: sgATF6, 10000 nM
[7] = sgRNA knockout: sgATG7, 1000 nM
[8] = sgRNA knockout: sgATG7, 10000 nM
[9] = sgRNA knockout: sgERN1, 1000 nM
[10] = sgRNA knockout: sgERN1, 10000 nM
[11] = sgRNA knockout: sgHSF1, 1000 nM
[12] = sgRNA knockout: sgHSF1, 10000 nM
[13] = sgRNA knockout: sgHSF2, 1000 nM
[14] = sgRNA knockout: sgHSF2, 10000 nM
[15] = sgRNA knockout: sgKEAP1, 100 nM
[16] = sgRNA knockout: sgKEAP1, 1000 nM
[17] = sgRNA knockout: sgKEAP1, 10000 nM
[18] = sgRNA knockout: sgNFE2L2, 10 nM
[19] = sgRNA knockout: sgNFE2L2, 100 nM
[20] = sgRNA knockout: sgNFE2L2, 1000 nM
[21] = sgRNA knockout: sgNFE2L2, 10000 nM
[22] = sgRNA knockout: sgSLC35F2, 10 nM
[23] = sgRNA knockout: sgSLC35F2, 100 nM
[24] = sgRNA knockout: sgSLC35F2, 1000 nM
[25] = sgRNA knockout: sgSLC35F2, 10000 nM
[26] = sgRNA knockout: sgXBP1, 1000 nM
[27] = sgRNA knockout: sgXBP1, 10000 nM

`O=C(NOCC(O)CO)c1cc(Br)c(F)c(F)c1Nc1ccc(I)cc1F` (configuration not stated) was tested, and the relative cell number (sgRNA knockout: sgATF3, 10 nM) was 109 ± 7.6, the relative cell number (sgRNA knockout: sgATF3, 100 nM) was 115 ± 35 and the relative cell number [1] was 65.8 ± 6.3. It also gave a relative cell number [2] of 37 ± 4.2, a relative cell number (sgRNA knockout: sgATF4, 10 nM) of 139 ± 4.2 and a relative cell number (sgRNA knockout: sgATF4, 100 nM) of 111 ± 9.9. For the same compound, the relative cell number [3] was 91.3 ± 28, the relative cell number [4] was 43.6 ± 10 and the relative cell number (sgRNA knockout: sgATF6, 10 nM) was 89.2 ± 17. It also gave a relative cell number (sgRNA knockout: sgATF6, 100 nM) of 86.4 ± 35, a relative cell number [5] of 76.3 ± 12 and a relative cell number [6] of 52.8 ± 29. It also gave a relative cell number (sgRNA knockout: sgATG7, 10 nM) of 101 ± 19, a relative cell number (sgRNA knockout: sgATG7, 100 nM) of 93.3 ± 1.8 and a relative cell number [7] of 64.1 ± 7.7. The relative cell number [8] was 50.7 ± 20, the relative cell number (sgRNA knockout: sgERN1, 10 nM) was 98.3 ± 13 and the relative cell number (sgRNA knockout: sgERN1, 100 nM) was 85.8 ± 6.7. It also gave a relative cell number [9] of 74 ± 6.3, a relative cell number [10] of 43.5 ± 3.8 and a relative cell number (sgRNA knockout: sgHSF1, 10 nM) of 93.3 ± 14. It also gave a relative cell number (sgRNA knockout: sgHSF1, 100 nM) of 81.1 ± 3.5, a relative cell number [11] of 76.5 ± 17 and a relative cell number [12] of 40.3 ± 7.1. For the same compound, the relative cell number (sgRNA knockout: sgHSF2, 10 nM) was 97.9 ± 22, the relative cell number (sgRNA knockout: sgHSF2, 100 nM) was 84.2 ± 20 and the relative cell number [13] was 65.7 ± 3. The relative cell number [14] was 48.6 ± 6.8, the relative cell number (sgRNA knockout: sgKEAP1, 10 nM) was 115 ± 27 and the relative cell number [15] was 98.9 ± 17. For the same compound, the relative cell number [16] was 73.1 ± 0.8, the relative cell number [17] was 48.3 ± 5.6 and the relative cell number [18] was 128 ± 30. It also gave a relative cell number [19] of 85.2 ± 5, a relative cell number [20] of 65.2 ± 7.2 and a relative cell number [21] of 43.9 ± 1. For the same compound, the relative cell number [22] was 115 ± 19, the relative cell number [23] was 65.9 ± 7.9 and the relative cell number [24] was 73.6 ± 6.2. The relative cell number [25] was 41.4 ± 10, the relative cell number (sgRNA knockout: sgXBP1, 10 nM) was 113 ± 8.1 and the relative cell number (sgRNA knockout: sgXBP1, 100 nM) was 85.1 ± 11. The relative cell number [26] was 78 ± 1.6 and the relative cell number [27] was 50.8 ± 10.
Work on `Cc1ccc(F)c(NC(=O)Nc2ccc(-c3cccc4[nH]nc(N)c34)cc2)c1` [Linifanib] yielded a relative cell number (sgRNA knockout: sgATF3, 10 nM) of 82.5 ± 36, a relative cell number (sgRNA knockout: sgATF3, 100 nM) of 137 ± 23 and a relative cell number [1] of 92.2 ± 10. For the same compound, the relative cell number [2] was 20.1 ± 2.4, the relative cell number (sgRNA knockout: sgATF4, 10 nM) was 69.7 ± 4.9 and the relative cell number (sgRNA knockout: sgATF4, 100 nM) was 164.5 ± 1.1. The relative cell number [3] was 96.7 ± 30, the relative cell number [4] was 25 ± 3.5 and the relative cell number (sgRNA knockout: sgATF6, 10 nM) was 87.7 ± 32. The relative cell number (sgRNA knockout: sgATF6, 100 nM) was 98.1 ± 10, the relative cell number [5] was 113 ± 15 and the relative cell number [6] was 17.2 ± 0.54. It also gave a relative cell number (sgRNA knockout: sgATG7, 10 nM) of 79.7 ± 18, a relative cell number (sgRNA knockout: sgATG7, 100 nM) of 92.8 ± 15 and a relative cell number [7] of 87 ± 6.5. For the same compound, the relative cell number [8] was 17.1 ± 2.8, the relative cell number (sgRNA knockout: sgERN1, 10 nM) was 93.7 ± 9 and the relative cell number (sgRNA knockout: sgERN1, 100 nM) was 99.5 ± 1.4. For the same compound, the relative cell number [9] was 98.4 ± 26, the relative cell number [10] was 19.6 ± 6.5 and the relative cell number (sgRNA knockout: sgHSF1, 10 nM) was 77.2 ± 3.6. The relative cell number (sgRNA knockout: sgHSF1, 100 nM) was 99.7 ± 6.9, the relative cell number [11] was 87.1 ± 3.6 and the relative cell number [12] was 19.3 ± 6.5. The relative cell number (sgRNA knockout: sgHSF2, 10 nM) was 87.1 ± 20, the relative cell number (sgRNA knockout: sgHSF2, 100 nM) was 104 ± 35 and the relative cell number [13] was 106 ± 8.4. It also gave a relative cell number [14] of 13.9 ± 4.2, a relative cell number (sgRNA knockout: sgKEAP1, 10 nM) of 85.3 ± 23 and a relative cell number [15] of 89 ± 1.2. For the same compound, the relative cell number [16] was 108 ± 3.9, the relative cell number [17] was 23.1 ± 1.7 and the relative cell number [18] was 76.4 ± 1.1. The relative cell number [19] was 109 ± 22, the relative cell number [20] was 113 ± 29 and the relative cell number [21] was 18 ± 0.24. The relative cell number [22] was 87.5 ± 26, the relative cell number [23] was 101 ± 9.3 and the relative cell number [24] was 104 ± 2.9. It also gave a relative cell number [25] of 18.3 ± 4.3, a relative cell number (sgRNA knockout: sgXBP1, 10 nM) of 74.3 ± 14 and a relative cell number (sgRNA knockout: sgXBP1, 100 nM) of 97.2 ± 24. It also gave a relative cell number [26] of 95.3 ± 9.8 and a relative cell number [27] of 16.7 ± 0.72.
`CC(=O)Nc1cccc(-n2c(=O)n(C3CC3)c(=O)c3c(Nc4ccc(I)cc4F)n(C)c(=O)c(C)c32)c1` [Trametinib] gave a relative cell number (sgRNA knockout: sgATF3, 10 nM) of 96.5 ± 73, a relative cell number (sgRNA knockout: sgATF3, 100 nM) of 65.6 ± 20 and a relative cell number [1] of 47.5 ± 6.4. It also gave a relative cell number [2] of 29.6 ± 19, a relative cell number (sgRNA knockout: sgATF4, 10 nM) of 99.2 ± 36 and a relative cell number (sgRNA knockout: sgATF4, 100 nM) of 64.2 ± 21. For the same compound, the relative cell number [3] was 48.1 ± 6.2, the relative cell number [4] was 36.2 ± 16 and the relative cell number (sgRNA knockout: sgATF6, 10 nM) was 117 ± 10. The relative cell number (sgRNA knockout: sgATF6, 100 nM) was 74.6 ± 33, the relative cell number [5] was 58.2 ± 4.6 and the relative cell number [6] was 38.1 ± 14. For the same compound, the relative cell number (sgRNA knockout: sgATG7, 10 nM) was 104 ± 3.6, the relative cell number (sgRNA knockout: sgATG7, 100 nM) was 72.4 ± 18 and the relative cell number [7] was 53.9 ± 12. The relative cell number [8] was 39.1 ± 5.8, the relative cell number (sgRNA knockout: sgERN1, 10 nM) was 81.1 ± 5.3 and the relative cell number (sgRNA knockout: sgERN1, 100 nM) was 66.9 ± 11. It also gave a relative cell number [9] of 64.1 ± 5.3, a relative cell number [10] of 36.9 ± 6.6 and a relative cell number (sgRNA knockout: sgHSF1, 10 nM) of 85.6 ± 28. The relative cell number (sgRNA knockout: sgHSF1, 100 nM) was 61.5 ± 3.6, the relative cell number [11] was 49.2 ± 3.9 and the relative cell number [12] was 41.5 ± 15. The relative cell number (sgRNA knockout: sgHSF2, 10 nM) was 111 ± 11, the relative cell number (sgRNA knockout: sgHSF2, 100 nM) was 64.3 ± 16 and the relative cell number [13] was 53 ± 14. It also gave a relative cell number [14] of 39.1 ± 4.6, a relative cell number (sgRNA knockout: sgKEAP1, 10 nM) of 127 ± 27 and a relative cell number [15] of 63.2 ± 7.5. For the same compound, the relative cell number [16] was 48.3 ± 0.75, the relative cell number [17] was 53 ± 15 and the relative cell number [18] was 95 ± 1.3. The relative cell number [19] was 61.9 ± 15, the relative cell number [20] was 54.3 ± 8.9 and the relative cell number [21] was 32.7 ± 2.9. For the same compound, the relative cell number [22] was 98.8 ± 34, the relative cell number [23] was 65.1 ± 4 and the relative cell number [24] was 53 ± 5.3. The relative cell number [25] was 30.9 ± 6.6, the relative cell number (sgRNA knockout: sgXBP1, 10 nM) was 98.9 ± 5.1 and the relative cell number (sgRNA knockout: sgXBP1, 100 nM) was 82.1 ± 9.6. The relative cell number [26] was 48.3 ± 14 and the relative cell number [27] was 46.8 ± 9.5.
